This passage reports T/C results from PubChem BioAssay AID292 (DTP/NCI, 2004).

The list shows only some results of the screen, not a fair sample: it gathers some chemical classes. Other doses and runs of a compound may be missing. T/C gives the treated animals as a percentage of the vehicle group. For survival time, the PubChem record calls one and a half times the control and up active, and a quarter to a half above the control has no call in these data; cut-offs in other NCI protocols can differ. Schedule codes are those of the source, taken here to give the interval after Q, in days (D) or hours (H), and the number of doses after X.

This assay has as its system B6C3F1 mice, ip Sarcoma M5076, median survival T/C. Briefly: NCI In Vivo Anticancer Drug Screen. Data for tumor model Sarcoma M5076 (intraperitoneal) in B6C3F1 mice. Particulars: T/C endpoint: median survival time, schedule: Q04DX004 (ip), vehicle: saline, higher T/C = longer survival. The protocol:
The antitumor activity of compounds was measured in mice bearing transplantable tumors. Survival or tumor size were measured and the results are expressed as the measurement made in the treated group (T) divided by the measurement made in the vehicle treated control group (C). The tumor model used in this assay is Sarcoma M5076 (intraperitoneal) in B6C3F1 mice

In the case of `NCCN(CCCl)CCCl`, the T/C reads like this: (dose: 0.54 mg/kg/injection) 112 % of control; (dose: 0.9 mg/kg/injection) 158 % of control; (dose: 1.5 mg/kg/injection) 251 % of control.
